This is an account of results in publication PMC12431657, “Discovery and mechanistic insights of dibenzoylmethane as a broad spectrum inhibitor of coronavirus” (PLOS Pathogens, 2025).

Structures can show the parent of a compound that is named as a salt. Where two headings read alike, the source gives them in different places. About 95 (3%) of roughly 3,300 compounds showed an effect of 50% or more. The list shows a part of the results. Peptide text beside a SMILES is read from it.

The assay has as its system HCoV-229E. Also on record: species or system Huh-7; HTS, protection from HCoV-229E induced cell death, luminescent cell viability (CellCounting-Lite 2.0), inhibition rate. The note with it: 24 h post infection, 1 h compound pre-incubation, 10 µM, inhibitor.

Take `CC1(C)C(=O)[C@]2(C)CC[C@H]1C2` [(-)-Fenchone]: the “229E Inhibition rate” value is given as 23.7%.

On to `C[C@H]1CCC/C=C/[C@@H]2C[C@H](O)C[C@H]2[C@H](O)/C=C/C(=O)O1` [Brefeldin A], for which the “229E Inhibition rate” value worked out at 19.7%.

For the molecule `Oc1ccc([C@H]2COc3cc(O)ccc3C2)cc1` [(-)-(S)-Equol], the “229E Inhibition rate” value was found to be 8.5%.

For `C[C@H]1CC[C@@]2(O)C(C)(C)[C@@H]3CC[C@@]2(C)[C@H]1C3` [Patchouli alcohol], the “229E Inhibition rate” value was 8.8%.

Regarding `CC1=C[C@H]2[C@@H](CC1)[C@H](C)CC[C@H]2[C@@H](C)C(=O)O` [Dihydroartemisinic acid], the “229E Inhibition rate” value was found to be 10.7%.

Turning to `CCC12C=CCN3CC[C@@]4(c5ccc(OC)cc5N(C)[C@H]4[C@@](O)(C(=O)OC)[C@@H]1OC(C)=O)[C@@H]32` (stereo partly shown) [Vindoline], the “229E Inhibition rate” value amounted to 10.2%.

On to `CCCCCCCCCCCCCCCC(=O)OC` [Methyl palmitate], for which the “229E Inhibition rate” value came to 12.6%.

As to `O=C(O)c1cc(O)c2c(c1)C(=O)c1cccc(O)c1C2=O` [Rhein], the “229E Inhibition rate” value is given as 55.2%.

Consider `COC(=O)C1=CO[C@@H](O)[C@@H]2[C@@H](C)[C@@H](O)C[C@H]12` [Loganetin], for which the “229E Inhibition rate” value was 13.9%.

Regarding `O=C(O)c1ccccc1C(=O)O` [Phthalic acid], the “229E Inhibition rate” value is 24%.

Turning to `O=c1cc(-c2ccc(O)cc2)oc2c([C@@H]3O[C@H](CO)[C@@H](O[C@@H]4O[C@H](CO)[C@@H](O)[C@H](O)[C@H]4O)[C@H](O)[C@H]3O)c(O)cc(O)c12` [4”-O-Glucosylvitexin], the “229E Inhibition rate” value turned out to be 19%.

As to `O=C[C@@H](O)[C@H](O)[C@@H](O)CO` [L-Xylose], the “229E Inhibition rate” value was found to be 15.6%.

In the case of `CC(C)=CCc1c(O)cc2c(c1O)C(=O)C[C@@H](c1ccc(O)cc1)O2` [(2S)-6-Prenylnaringenin], the “229E Inhibition rate” value is recorded as 22.5%.

`CC1(C)Oc2cc3oc(=O)ccc3cc2C[C@@H]1O` [Decursinol]: the “229E Inhibition rate” value was 0%.

For `COc1ccc2c(C)cc(=O)oc2c1O` [7-Methoxy-4-methyl-coumarin-8-ol], the “229E Inhibition rate” value came out at 12.9%.

As to `O=C(OC[C@H]1O[C@@H](OC(=O)c2cc(O)c(O)c(OC(=O)c3cc(O)c(O)c(O)c3)c2)[C@H](OC(=O)c2cc(O)c(O)c(OC(=O)c3cc(O)c(O)c(O)c3)c2)[C@@H](OC(=O)c2cc(O)c(O)c(OC(=O)c3cc(O)c(O)c(O)c3)c2)[C@@H]1OC(=O)c1cc(O)c(O)c(OC(=O)c2cc(O)c(O)c(O)c2)c1)c1cc(O)c(O)c(OC(=O)c2cc(O)c(O)c(O)c2)c1` [Tannic acid], the “229E Inhibition rate” value is reported as 8.9%.

Take `NC(N)=N[C@@H](CC(=O)O)C(=O)O` [Guanidinosuccinic acid]: the “229E Inhibition rate” value was 40.7%.

With `O=C(O)/C=C/CCCCCCCCC(=O)O` [Traumatic Acid], the “229E Inhibition rate” value is 16%.

Take `COc1cc(O)c2c(=O)c(O[C@@H]3O[C@H](CO[C@@H]4O[C@@H](C)[C@H](O)[C@@H](O)[C@H]4O)[C@@H](O)[C@H](O)[C@H]3O)c(-c3ccc(OC)c(O)c3)oc2c1` [Ombuoside]: the “229E Inhibition rate” value is listed as 41.9%.

Regarding `CC1(C)[C@H](OC(=O)c2ccccc2)CC[C@]2(C)C3=CC[C@@]4(C)[C@@H]5C[C@](C)(COC(=O)c6ccccc6)CC[C@]5(C)CC[C@]4(C)C3=CC[C@@H]12` [3,29-O-Dibenzoyloxykarounidiol], the “229E Inhibition rate” value stood at 14%.

With `C=CC(C)(C)O[C@@H]1O[C@H](CO)[C@@H](O)[C@H](O)[C@H]1O` [Crenulatin], the “229E Inhibition rate” value is given as 42.9%.

Turning to `COc1ccc2c3c1O[C@H]1C[C@@H](O)C=C[C@@]31CC[N+](C)([O-])C2` (stereo partly shown) [Galanthamine N-Oxide], the “229E Inhibition rate” value is 11.6%.

Consider `COc1cccc2c1C(=O)c1c(O)c3c(c(O)c1C2=O)C[C@@](O)(C(=O)CO)C[C@@H]3O[C@H]1C[C@H](N)[C@H](O)[C@H](C)O1` [Doxorubicin (hydrochloride)], for which the “229E Inhibition rate” value is 17.9%.

For `CCCCCCCCCCCO` [1-Undecanol], the “229E Inhibition rate” value is listed as 9.6%.

In the case of `CSCC[C@H](NC(C)=O)C(=O)O` [N-Acetyl-L-methionine], the “229E Inhibition rate” value is reported as 14.8%.

Regarding `O=C(O)/C=C/c1ccc2c(c1)OCO2` [(E)-3,4-(Methylenedioxy)cinnamic acid], where the note is “229E Inhibition rate, 24 h”, the “229E Inhibition rate” value is given as 30.2%.

As to `C=C1[C@@H](O)[C@]23C[C@@H]1[C@@H](O)C[C@H]2[C@@]12C4[C@@H]3C[C@@H]1[C@@](C)(CC[C@@H]2O)CN4CC` [12-Epinapelline], the “229E Inhibition rate” value is given as 8%.

As for `COc1cc(CNC(=O)CCCC/C=C/C(C)C)ccc1O[C@@H]1O[C@H](CO)[C@@H](O)[C@H](O)[C@H]1O` [Capsaicin β-D-glucopyranoside], the “229E Inhibition rate” value turned out to be 12.5%.

`CC1(C)O[C@H]2[C@H](O)CC(C(=O)O)=C[C@H]2O1` [3,4-O-Isopropylidene-shikimic acid]: the “229E Inhibition rate” value was 0%.

For the molecule `CN[C@@H]1[C@H](O[C@H]2[C@H](O[C@H]3[C@H](O)[C@@H](O)[C@H](N=C(N)N)[C@@H](O)[C@@H]3N=C(N)N)O[C@@H](C)[C@]2(O)C=O)O[C@@H](CO)[C@H](O)[C@H]1O` [Streptomycin (sulfate)], the “229E Inhibition rate” value came to 8.9%.

In the case of `CCCCCCCCC[C@H](O)CC(=O)CCc1ccc(O)c(OC)c1` [10-Gingerol], the “229E Inhibition rate” value was determined as 32.3%.

Turning to `O=C(O)CC(O)C(=O)O` (stereo not shown) [Malic acid], the “229E Inhibition rate” value turned out to be 10.4%.

Take `CC[C@@H](C)O` [(R)-(-)-2-Butanol]: the “229E Inhibition rate” value stood at 20.6%.

Regarding `C[C@]12CCC(=O)C=C1CC[C@@H]1[C@@H]2[C@@H](O)C[C@@]2(C)[C@H]1CC[C@]2(O)C(=O)CO` [Hydrocortisone], the “229E Inhibition rate” value was found to be 25.8%.

On to `O=C(CCc1ccc(O)cc1)c1c(O)cc(O)cc1O[C@@H]1O[C@H](CO)[C@@H](O)[C@H](O)[C@H]1O` [Phlorizin], for which the “229E Inhibition rate” value is on record as 10.5%.

In the case of `CC(=O)C1=C(O)C=C2Oc3c(C(C)=O)c(O)c(C)c(O)c3[C@@]2(C)C1=O` [(+)-Usnic acid], the “229E Inhibition rate” value was 4.4%.

Regarding `COC(=O)c1cccnc1` [Methyl nicotinate], the “229E Inhibition rate” value was found to be 15.3%.

For `CC(=O)c1ccc(O)cc1` [4-Hydroxyacetophenone], the “229E Inhibition rate” value came out at 18%.

As to `CC1(C)CC[C@]2(C(=O)O)CCC3=C([C@@H](CCl)C[C@@H]4[C@@]5(C)C[C@H](O)[C@H](O)[C@@](C)(C(=O)O)[C@@H]5CC[C@@]34C)[C@@H]2C1` [Tenuigenin], the “229E Inhibition rate” value turned out to be 0%.

As for `COc1c2ccoc2c(OCC=C(C)C)c2oc(=O)ccc12` [Phellopterin], the “229E Inhibition rate” value is recorded as 19.4%.

Turning to `c1ccc2c(Cc3c[nH]c4ccccc34)c[nH]c2c1` [3,3'-Diindolylmethane], the “229E Inhibition rate” value came to 15.5%.

With `OC1OC[C@@H](O[C@@H]2OC[C@@H](O[C@@H]3OC[C@@H](O[C@@H]4OC[C@@H](O)[C@H](O)[C@H]4O)[C@H](O)[C@H]3O)[C@H](O)[C@H]2O)[C@H](O)[C@H]1O` (stereo partly shown) [Xylotetraose], the “229E Inhibition rate” value is 21.7%.

Regarding `CO[C@H]1c2cc(C(C)C)c(O)c(O)c2[C@@]23CCCC(C)(C)[C@@H]2[C@@H]1OC3=O` [7-Methoxyrosmanol], the “229E Inhibition rate” value was determined as 21.1%.

For `Oc1ccc2c(c1)OCO2` [Sesamol], the “229E Inhibition rate” value is listed as 7.6%.

Turning to `CCCCCCCCCCCCC` [Tridecane], the “229E Inhibition rate” value came to 11.3%.

Regarding `CC(=O)c1ccccc1N` [2'-Aminoacetophenone], the “229E Inhibition rate” value came out at 35.9%.

Consider `C[C@]12CC[C@H]3[C@@H](CC=C4C[C@@H](O)CC[C@@]43C)[C@@H]1CC[C@@H]2C(=O)CO` [21-Hydroxypregnenolone], for which the “229E Inhibition rate” value was 2.6%.

In the case of `C=C1C(=O)O[C@@H]2/C=C(\C)CC/C=C(\C)CC[C@@H]12` [Costunolide], the “229E Inhibition rate” value turned out to be 30.2%.

With `CC(C)[C@H](NC(=O)CN)C(=O)O` [Glycyl-L-valine] (H-Gly-Val-OH), the “229E Inhibition rate” value amounted to 16.9%.

Consider `CC[C@@]1(O)C(=O)OCc2c1cc1n(c2=O)Cc2cc3ccccc3nc2-1` [Camptothecin], for which the “229E Inhibition rate” value is reported as 7.4%.

On to `c1ccc(Nc2ccccc2)cc1` [Diphenylamine (hydrochloride)], for which the “229E Inhibition rate” value is listed as 13.5%.

For the molecule `COc1cc(CC(=O)C(=O)O)ccc1O` [Vanilpyruvic acid], the “229E Inhibition rate” value was 8.6%.

Take `C[C@]12CC[C@@H]3c4ccc(O)cc4CC[C@H]3[C@@H]1CC[C@@H]2O` [Estradiol]: the “229E Inhibition rate” value was 37.5%.

As for `CC(C)(O)[C@H]1CC[C@@](C)([C@H]2CC[C@]3(C)[C@@H]2[C@H](O)C[C@@H]2[C@@]4(C)CC[C@H](O)C(C)(C)[C@@H]4[C@@H](O[C@@H]4O[C@H](CO)[C@@H](O)[C@H](O)[C@H]4O)C[C@]23C)O1` [Pseudoginsenoside RT5], the “229E Inhibition rate” value was found to be 13.1%.

As to `CC(C)(C)c1ccc(O)c(C(C)(C)C)c1` [2,4-Di-tert-butylphenol], the “229E Inhibition rate” value is 22.7%.

For `N[C@@H](CC(=O)N[C@@H](CC(=O)O)C(=O)O)C(=O)O` [β-Aspartylaspartic acid], the “229E Inhibition rate” value was found to be 12.1%.

Take `CCCC(=O)c1c(O)c(Cc2c(O)c(Cc3c(O)c(C)c(OC)c(C(=O)CCC)c3O)c(O)c(C(=O)[C@@H](C)CC)c2O)c(O)c(C)c1OC` [Agrimol B]: the “229E Inhibition rate” value is given as 3.6%.

Regarding `COc1c2ccoc2nc2c(O)cccc12` [Robustine], the “229E Inhibition rate” value amounted to 10.4%.

For the molecule `COc1ccc(-c2cc(=O)c3c(OC)c(OC)c(OC)c(OC)c3o2)cc1O` [3'-Demethylnobiletin], the “229E Inhibition rate” value was found to be 15.4%.

Consider `COCC(=O)O` [Methoxyacetic acid], for which the “229E Inhibition rate” value is 9%.

As for `Cn1cc(C(=O)O)ccc1=O` [1-Methyl-6-oxo-1,6-dihydropyridine-3-carboxylic acid], the “229E Inhibition rate” value worked out at 24%.

Consider `O=C(O)CCCCC(=O)O` [Adipic acid], for which the “229E Inhibition rate” value was 15.1%.

Turning to `COc1cc2c3c(c1OC)-c1ccccc1C[C@H]3N(C)CC2` [Nuciferine], the “229E Inhibition rate” value was found to be 11.6%.

With `C[C@@H]1O[C@@H](OC[C@H]2O[C@@H](Oc3c(-c4ccc(O)cc4)oc4cc(O[C@@H]5O[C@@H](C)[C@H](O)[C@@H](O)[C@H]5O)cc(O)c4c3=O)[C@H](O)[C@@H](O)[C@H]2O)[C@H](O)[C@H](O)[C@H]1O` [Robinin], the “229E Inhibition rate” value worked out at 8.6%.
